Measured values reported in article PMC3814370, “Functional assignment of KEOPS/EKC complex subunits in the biosynthesis of the universal t^6A tRNA modification” (Nucleic Acids Research, 2013).
These are yes or no findings as the source states them, for the method shown. Some entries that bind do so weakly or less than the wild type.

By UniProt entry, the sequences of proteins in these tests, tags left out.
UniProt Q9UXT7: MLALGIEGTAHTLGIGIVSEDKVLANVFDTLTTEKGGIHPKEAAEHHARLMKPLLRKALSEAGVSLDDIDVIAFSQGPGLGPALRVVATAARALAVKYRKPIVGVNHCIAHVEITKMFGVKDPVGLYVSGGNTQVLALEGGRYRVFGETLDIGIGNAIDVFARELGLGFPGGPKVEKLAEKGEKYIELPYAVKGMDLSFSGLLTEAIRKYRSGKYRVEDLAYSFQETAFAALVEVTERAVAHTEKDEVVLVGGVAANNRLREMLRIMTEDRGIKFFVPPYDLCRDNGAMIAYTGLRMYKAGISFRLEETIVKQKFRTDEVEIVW

Assays:
[1] = biological target: Kae1–Bud32 binary complex from Pyrococcus abyssi (Pyrococcus abyssi) (UniProt Q9UXT7+Q9UYB9); assay: SEC; as a4, with Cgi121 added in excess to the mixture of the Pcc1–Kae1 and Kae1–Bud32 binary complexes; both purified
[2] = biological target: Cgi121 from Pyrococcus abyssi (Pyrococcus abyssi) (UniProt Q9UZ62); assay: SEC; gel filtration of purified proteins and complexes on Superdex 200 in storage buffer (LBs); apparent molecular mass (Supplementary Figure S2); both purified
[3] = biological target: T1, Bud32 from Pyrococcus abyssi (Pyrococcus abyssi) (UniProt Q9UYB9); assay: co-purification of co-expressed proteins (Ni-NTA, then gel filtration); subunits co-expressed in E. coli; extract heated at 65°C for 15 min; His-tagged proteins purified on Ni-NTA, then Superdex 200 in storage buffer (LBs); fractions analysed by SDS-PAGE
T1 sequence: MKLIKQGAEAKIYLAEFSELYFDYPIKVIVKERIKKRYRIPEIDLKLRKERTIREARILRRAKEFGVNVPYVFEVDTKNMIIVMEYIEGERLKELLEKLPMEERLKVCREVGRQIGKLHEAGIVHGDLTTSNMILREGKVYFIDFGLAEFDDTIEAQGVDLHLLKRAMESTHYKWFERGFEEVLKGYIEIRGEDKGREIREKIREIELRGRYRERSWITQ

[4] = biological target: Kae1 from Pyrococcus abyssi (Pyrococcus abyssi) (UniProt Q9UXT7); assay: as above
[5] = biological target: Pcc1–Kae1 binary complex from Pyrococcus abyssi (Pyrococcus abyssi) (UniProt Q9V1Z9+Q9UXT7); assay: SEC; proteins or subcomplexes (100 µg each) mixed in LBs in 200 µl, 20 min at 4°C or room temperature, then Superdex 200 10/300 in LBs; eluted proteins analysed by SDS-PAGE (Supplementary Figure S3); both purified

B1: Cgi121 from Pyrococcus abyssi (protein, UniProt Q9UZ62 1-171)
chain: MTPKFKNFKHDNSGQVETYLFEVISKYTMLEIKTKFGKLCIAKVKLASESIERALNLCNDNCQIVSAKCHEEVIFATILAIKAFSSGRNTAKTIKGEILLRLAGVKQIKDAIKIIGARKGENLIIYFGVSDPCSSLKDFISSLGLREEPLKPCDEDEVKRGFERAAIIEAL
binding [1]: binds | binding [2]: no binding | binding [3]: binds

B2: Pcc1 from Pyrococcus abyssi (protein, UniProt Q9V1Z9 1-82)
chain: MKPKRVQGKIVIEFPSEDIAEVVYTSVLYEHVSVPYRRSRVNFRREGRRIVLEIEANDSSAMRGTVNSYLRWIKVALDVLNI
binding [4]: binds

B3: Bud32 from Pyrococcus abyssi (enzyme, UniProt Q9UYB9 1-220)
chain: T1 sequence
binding [4]: binds

B4: Bud32–Cgi121 binary complex from Pyrococcus abyssi (complex, UniProt Q9UYB9 1-220; Q9UZ62 1-171)
chain 1: T1 sequence
chain 2: B1 chain
binding [5]: binds
